# Measurements from the supplement of paper PMC10849652.
# The chains behind the UniProt entries cited, without tags or fusion partners. Where a name states a change or a piece, a line headed by the entry shows the natural chain unless it says otherwise.
# UniProt Q14186: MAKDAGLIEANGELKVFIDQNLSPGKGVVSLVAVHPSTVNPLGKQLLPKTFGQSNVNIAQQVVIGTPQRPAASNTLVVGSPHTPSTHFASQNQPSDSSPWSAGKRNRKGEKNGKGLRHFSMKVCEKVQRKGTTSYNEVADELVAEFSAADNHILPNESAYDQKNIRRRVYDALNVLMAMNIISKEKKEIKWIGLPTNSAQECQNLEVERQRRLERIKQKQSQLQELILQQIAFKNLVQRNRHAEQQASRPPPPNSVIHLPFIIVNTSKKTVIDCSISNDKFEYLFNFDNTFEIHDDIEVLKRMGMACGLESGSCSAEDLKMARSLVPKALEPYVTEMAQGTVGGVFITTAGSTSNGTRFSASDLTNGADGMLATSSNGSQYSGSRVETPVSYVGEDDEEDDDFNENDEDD
# UniProt Q96RS0: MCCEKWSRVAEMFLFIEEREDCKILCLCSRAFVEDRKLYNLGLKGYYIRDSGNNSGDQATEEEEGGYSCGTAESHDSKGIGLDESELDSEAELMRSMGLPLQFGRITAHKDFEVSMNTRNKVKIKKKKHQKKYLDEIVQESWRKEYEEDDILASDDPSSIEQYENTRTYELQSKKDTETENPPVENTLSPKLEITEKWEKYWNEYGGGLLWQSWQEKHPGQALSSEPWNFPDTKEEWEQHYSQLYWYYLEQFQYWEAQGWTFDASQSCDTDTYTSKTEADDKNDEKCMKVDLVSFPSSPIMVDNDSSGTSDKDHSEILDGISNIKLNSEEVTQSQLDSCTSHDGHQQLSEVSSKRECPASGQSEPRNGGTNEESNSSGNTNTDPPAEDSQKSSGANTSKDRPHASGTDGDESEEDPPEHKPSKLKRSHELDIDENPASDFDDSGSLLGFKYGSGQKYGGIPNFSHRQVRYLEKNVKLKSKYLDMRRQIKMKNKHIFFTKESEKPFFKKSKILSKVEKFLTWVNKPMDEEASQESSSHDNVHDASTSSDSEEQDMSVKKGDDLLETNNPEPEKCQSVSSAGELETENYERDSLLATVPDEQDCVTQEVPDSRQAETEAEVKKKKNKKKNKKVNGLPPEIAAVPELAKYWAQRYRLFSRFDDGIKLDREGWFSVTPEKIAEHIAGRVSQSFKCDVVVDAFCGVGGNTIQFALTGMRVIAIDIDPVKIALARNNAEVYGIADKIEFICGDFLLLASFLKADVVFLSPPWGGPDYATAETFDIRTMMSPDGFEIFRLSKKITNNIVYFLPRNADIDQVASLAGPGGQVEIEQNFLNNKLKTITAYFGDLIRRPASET
# UniProt P15923: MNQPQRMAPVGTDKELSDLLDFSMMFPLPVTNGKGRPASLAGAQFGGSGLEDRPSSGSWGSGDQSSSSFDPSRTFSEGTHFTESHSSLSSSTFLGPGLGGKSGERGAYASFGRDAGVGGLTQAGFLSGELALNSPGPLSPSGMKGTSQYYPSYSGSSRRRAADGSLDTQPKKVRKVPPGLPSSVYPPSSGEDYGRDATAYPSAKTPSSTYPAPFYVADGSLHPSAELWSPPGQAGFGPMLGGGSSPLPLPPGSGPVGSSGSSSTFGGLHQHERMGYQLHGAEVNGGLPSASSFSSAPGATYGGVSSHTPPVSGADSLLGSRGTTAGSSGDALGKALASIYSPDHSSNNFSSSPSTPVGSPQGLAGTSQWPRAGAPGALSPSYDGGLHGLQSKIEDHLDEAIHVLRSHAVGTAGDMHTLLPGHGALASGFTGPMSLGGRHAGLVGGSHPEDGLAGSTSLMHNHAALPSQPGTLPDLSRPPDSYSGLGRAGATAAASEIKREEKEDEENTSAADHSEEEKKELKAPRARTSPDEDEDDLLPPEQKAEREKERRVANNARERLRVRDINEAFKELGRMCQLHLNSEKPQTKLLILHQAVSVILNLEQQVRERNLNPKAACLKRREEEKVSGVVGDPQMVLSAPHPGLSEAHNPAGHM
# UniProt Q8WUY1: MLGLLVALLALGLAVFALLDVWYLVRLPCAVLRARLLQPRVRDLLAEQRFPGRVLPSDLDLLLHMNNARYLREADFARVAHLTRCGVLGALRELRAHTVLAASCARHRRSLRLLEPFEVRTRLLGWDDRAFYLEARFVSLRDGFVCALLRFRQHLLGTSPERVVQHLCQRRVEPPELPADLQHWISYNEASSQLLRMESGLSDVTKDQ
# UniProt Q6I9Y2: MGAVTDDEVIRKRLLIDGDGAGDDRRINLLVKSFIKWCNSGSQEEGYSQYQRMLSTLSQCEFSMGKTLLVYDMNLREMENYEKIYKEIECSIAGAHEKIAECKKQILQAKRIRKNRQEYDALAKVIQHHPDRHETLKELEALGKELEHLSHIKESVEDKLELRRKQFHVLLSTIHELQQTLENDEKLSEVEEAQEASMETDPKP
# UniProt O60830: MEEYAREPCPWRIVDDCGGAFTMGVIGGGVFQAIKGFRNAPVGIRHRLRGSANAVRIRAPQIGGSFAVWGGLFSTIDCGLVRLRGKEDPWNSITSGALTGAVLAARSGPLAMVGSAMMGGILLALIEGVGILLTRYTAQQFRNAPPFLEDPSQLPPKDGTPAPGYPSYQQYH
# UniProt Q96FV9: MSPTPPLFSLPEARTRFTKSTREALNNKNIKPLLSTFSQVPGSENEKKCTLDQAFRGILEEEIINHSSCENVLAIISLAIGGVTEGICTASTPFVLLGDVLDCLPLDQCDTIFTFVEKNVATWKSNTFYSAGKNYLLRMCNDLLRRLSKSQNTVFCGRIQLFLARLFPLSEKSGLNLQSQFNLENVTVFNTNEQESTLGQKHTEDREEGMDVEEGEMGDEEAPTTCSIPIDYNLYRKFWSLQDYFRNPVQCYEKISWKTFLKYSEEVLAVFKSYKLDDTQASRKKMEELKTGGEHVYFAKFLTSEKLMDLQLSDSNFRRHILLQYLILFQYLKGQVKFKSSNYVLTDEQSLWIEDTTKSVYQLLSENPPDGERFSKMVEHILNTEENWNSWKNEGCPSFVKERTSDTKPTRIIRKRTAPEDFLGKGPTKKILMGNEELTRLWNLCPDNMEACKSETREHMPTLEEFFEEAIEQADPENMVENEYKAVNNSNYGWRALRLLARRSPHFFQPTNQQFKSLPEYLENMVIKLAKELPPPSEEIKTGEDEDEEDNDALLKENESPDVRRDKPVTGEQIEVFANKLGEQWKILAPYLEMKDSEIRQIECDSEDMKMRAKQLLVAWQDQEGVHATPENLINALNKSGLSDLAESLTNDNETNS
# UniProt O60907: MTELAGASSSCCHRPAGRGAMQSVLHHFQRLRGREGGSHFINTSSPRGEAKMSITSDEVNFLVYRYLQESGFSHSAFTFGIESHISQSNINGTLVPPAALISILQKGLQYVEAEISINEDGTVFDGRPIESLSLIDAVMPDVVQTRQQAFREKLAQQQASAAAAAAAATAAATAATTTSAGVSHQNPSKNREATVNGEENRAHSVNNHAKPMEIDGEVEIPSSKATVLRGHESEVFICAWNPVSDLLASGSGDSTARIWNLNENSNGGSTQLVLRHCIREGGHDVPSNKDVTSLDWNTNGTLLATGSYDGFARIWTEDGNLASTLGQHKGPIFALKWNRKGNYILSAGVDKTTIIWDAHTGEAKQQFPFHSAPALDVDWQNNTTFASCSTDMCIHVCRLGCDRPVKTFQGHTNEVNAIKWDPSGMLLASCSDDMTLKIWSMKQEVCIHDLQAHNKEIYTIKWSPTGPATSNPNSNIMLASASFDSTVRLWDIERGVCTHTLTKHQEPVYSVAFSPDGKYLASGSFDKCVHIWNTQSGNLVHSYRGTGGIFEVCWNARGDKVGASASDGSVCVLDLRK
# UniProt P07996: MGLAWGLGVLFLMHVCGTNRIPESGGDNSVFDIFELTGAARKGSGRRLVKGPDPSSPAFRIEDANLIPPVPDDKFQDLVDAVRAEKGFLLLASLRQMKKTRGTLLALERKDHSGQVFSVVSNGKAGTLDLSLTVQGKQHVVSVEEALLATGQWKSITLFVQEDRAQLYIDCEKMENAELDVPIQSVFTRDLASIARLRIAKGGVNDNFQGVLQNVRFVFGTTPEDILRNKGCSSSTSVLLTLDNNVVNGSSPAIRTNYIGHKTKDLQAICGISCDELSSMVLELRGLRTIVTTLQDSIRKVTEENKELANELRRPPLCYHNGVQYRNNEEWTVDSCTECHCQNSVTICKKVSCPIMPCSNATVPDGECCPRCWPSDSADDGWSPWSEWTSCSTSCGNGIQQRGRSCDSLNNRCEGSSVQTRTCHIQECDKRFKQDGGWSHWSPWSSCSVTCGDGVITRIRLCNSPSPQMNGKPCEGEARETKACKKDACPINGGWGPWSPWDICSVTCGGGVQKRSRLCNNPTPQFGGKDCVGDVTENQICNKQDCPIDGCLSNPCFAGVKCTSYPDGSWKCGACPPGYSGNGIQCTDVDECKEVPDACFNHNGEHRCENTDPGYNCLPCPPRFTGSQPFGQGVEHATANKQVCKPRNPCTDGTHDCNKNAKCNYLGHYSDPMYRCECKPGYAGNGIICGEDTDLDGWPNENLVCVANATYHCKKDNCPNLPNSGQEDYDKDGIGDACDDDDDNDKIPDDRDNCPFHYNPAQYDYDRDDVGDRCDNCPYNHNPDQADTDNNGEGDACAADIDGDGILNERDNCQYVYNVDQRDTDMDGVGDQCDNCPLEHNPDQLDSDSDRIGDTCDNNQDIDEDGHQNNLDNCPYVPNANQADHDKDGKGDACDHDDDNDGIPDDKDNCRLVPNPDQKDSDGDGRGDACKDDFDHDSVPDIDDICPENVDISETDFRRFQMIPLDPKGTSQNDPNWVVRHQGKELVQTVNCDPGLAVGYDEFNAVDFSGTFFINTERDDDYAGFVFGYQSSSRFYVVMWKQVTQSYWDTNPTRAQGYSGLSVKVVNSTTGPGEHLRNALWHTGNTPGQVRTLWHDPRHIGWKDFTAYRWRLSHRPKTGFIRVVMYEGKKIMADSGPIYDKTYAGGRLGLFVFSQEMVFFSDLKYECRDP
# UniProt Q14188: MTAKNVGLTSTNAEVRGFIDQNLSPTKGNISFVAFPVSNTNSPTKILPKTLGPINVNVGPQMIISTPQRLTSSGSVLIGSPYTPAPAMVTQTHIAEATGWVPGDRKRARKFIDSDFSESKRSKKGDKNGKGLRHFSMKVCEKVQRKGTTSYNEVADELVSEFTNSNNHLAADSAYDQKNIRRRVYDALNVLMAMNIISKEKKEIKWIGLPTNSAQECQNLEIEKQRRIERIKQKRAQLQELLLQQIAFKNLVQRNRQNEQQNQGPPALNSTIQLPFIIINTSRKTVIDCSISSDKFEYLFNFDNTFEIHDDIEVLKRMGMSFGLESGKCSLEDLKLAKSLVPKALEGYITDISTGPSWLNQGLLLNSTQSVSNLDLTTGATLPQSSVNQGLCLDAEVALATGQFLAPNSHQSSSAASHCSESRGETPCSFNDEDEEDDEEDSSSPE
# UniProt Q8WVM0: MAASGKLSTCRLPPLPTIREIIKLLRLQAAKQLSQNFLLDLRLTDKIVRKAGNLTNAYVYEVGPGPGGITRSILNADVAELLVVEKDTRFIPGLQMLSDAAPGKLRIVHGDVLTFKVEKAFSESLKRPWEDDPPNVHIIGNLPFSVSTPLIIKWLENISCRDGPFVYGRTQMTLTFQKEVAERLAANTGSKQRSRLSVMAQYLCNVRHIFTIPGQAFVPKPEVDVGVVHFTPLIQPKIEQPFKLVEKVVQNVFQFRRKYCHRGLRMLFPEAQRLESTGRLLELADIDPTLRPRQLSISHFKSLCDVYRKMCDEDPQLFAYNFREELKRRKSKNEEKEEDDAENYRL
# UniProt Q96J01: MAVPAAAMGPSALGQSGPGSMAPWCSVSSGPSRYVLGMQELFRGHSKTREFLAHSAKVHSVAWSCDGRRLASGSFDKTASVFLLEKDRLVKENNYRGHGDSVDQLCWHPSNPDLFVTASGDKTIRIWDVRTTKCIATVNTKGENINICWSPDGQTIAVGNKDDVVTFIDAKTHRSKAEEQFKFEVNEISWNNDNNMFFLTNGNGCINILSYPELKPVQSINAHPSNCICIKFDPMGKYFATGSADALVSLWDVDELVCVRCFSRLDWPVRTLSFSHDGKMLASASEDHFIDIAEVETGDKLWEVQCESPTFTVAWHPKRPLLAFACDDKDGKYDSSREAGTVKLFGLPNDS
# UniProt Q9BV44: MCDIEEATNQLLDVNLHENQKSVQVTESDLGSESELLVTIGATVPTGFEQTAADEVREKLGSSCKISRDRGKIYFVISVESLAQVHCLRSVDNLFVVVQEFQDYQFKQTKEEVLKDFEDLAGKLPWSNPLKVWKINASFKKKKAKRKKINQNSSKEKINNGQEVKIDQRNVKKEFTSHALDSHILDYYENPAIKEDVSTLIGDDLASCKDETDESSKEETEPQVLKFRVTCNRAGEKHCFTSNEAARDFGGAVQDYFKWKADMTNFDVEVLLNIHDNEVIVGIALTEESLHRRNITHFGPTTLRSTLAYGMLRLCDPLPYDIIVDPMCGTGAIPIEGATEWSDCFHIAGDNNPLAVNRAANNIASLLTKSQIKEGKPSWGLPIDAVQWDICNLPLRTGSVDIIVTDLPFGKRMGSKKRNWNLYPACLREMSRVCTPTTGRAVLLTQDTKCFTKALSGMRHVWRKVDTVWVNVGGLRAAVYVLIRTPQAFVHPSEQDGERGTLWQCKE
# Some of the results follow.
# Compound: c1cn2cc(-c3ccc4cn[nH]c4c3)nc(Nc3ccc(N4CCOCC4)cc3)c2n1 [entospletinib]
# Assay: log2 fold change, soluble protein after heating vs DMSO (PISA); higher = thermal stabilisation; K562 cells, 10 uM, 30 min; active = over 0.2 and 3.5 SD of the protein, either way, in both replicates (recomputed)
# Outline: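 K562 cells at 2×10^6 cells/mL were treated for 30 min with 10 μM compound, and aliquots were heated for 3 min over 48°C-58°C before pooling. Extraction used PBS with 0.5% NP-40 at 4°C, and soluble protein was the supernatant after 21,000xg for 90 min, measured by TMTpro 16plex LC-MS/MS with channel sums equalised. Thermal stability values, relative to control samples and from duplicates, are log2 fold changes.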
row,Target,log2 fold change
1,TFCP2 (UniProt Q12800),inactive: 0.044
2,TFDP1 (UniProt Q14186),inactive: 0.105
3,TET1 (UniProt Q8NFU7),inactive: -0.224
4,TGS1 (UniProt Q96RS0),inactive: 0.045
5,TEX264 (UniProt Q9Y6I9),active: 0.601
6,TCF3 (UniProt P15923),inactive: -0.056
7,"TKT, A0A0B4J1R6",inactive: 0.033
8,THEM6 (UniProt Q8WUY1),inactive: -0.024
9,TBL2 (UniProt Q9Y4P3),inactive: 0.039
10,TJAP1 (UniProt Q5JTD0),inactive: 0.059
11,TKFC (UniProt Q3LXA3),inactive: -0.01
12,THOC6 (UniProt Q86W42),inactive: -0.028
13,TCF3 isoform 2 (UniProt P15923),inactive: -0.223
14,THOC7 (UniProt Q6I9Y2),inactive: -0.055
15,TCIRG1 (UniProt Q13488),inactive: 0.089
16,TIMM17B (UniProt O60830),inactive: 0.013
17,THOC1 (UniProt Q96FV9),inactive: 0.073
18,THG1L (UniProt Q9NWX6),inactive: -0.063
19,TBL1X (UniProt O60907),inactive: -0.019
20,THBS1 (UniProt P07996),inactive: 0.176
21,TK2 isoform 6 (UniProt O00142),inactive: 0.191
22,TGOLN2 isoform 7 (UniProt O43493),inactive: 0.023
23,TFDP2 (UniProt Q14188),inactive: -0.183
24,TCP1 (UniProt P17987),inactive: -0.035
25,TFB1M (UniProt Q8WVM0),inactive: 0.132
26,THOC3 (UniProt Q96J01),inactive: 0.002
27,TESC (UniProt Q96BS2),inactive: -0.044
28,TBC1D22B (UniProt Q9NU19),inactive: -0.041
29,THUMPD3 (UniProt Q9BV44),inactive: -0.011

# A few values from the list:
# Under log2 fold change, TCF3 (UniProt P15923) is listed with inactive: -0.056
# Under log2 fold change, THOC6 (UniProt Q86W42) is listed with inactive: -0.028
